Measurements as given in patent US10344054B2 (Ferring B.V., priority 2016, dated 2019).

Test: general procedure: Fmoc solid-phase peptide synthesis; 2-chlorotrityl resin; HBTU/NMM in DMF (Tribute); HBTU/DIPEA in NMP (Symphony); DIC/HOBt or DIC/Oxyma P
Conditions: whole synthesis

## Sar-Arg-Val-Tyr-Val-His-Pro-(D-Phe(2-Me))—OH
Based on 82.5% peptide content, scale 42 mmol, acetate salt
  isolated yield: 57.9%
Scale 42 mmol
  crude mass: 43.9 g
Scale 42 mmol, acetate salt
  isolated mass: 29532 mg

## Glac-Arg-Val-Tyr-Chg-His-Pro-(D-Phe(2-Me))—OH
Based on 75.7% peptide content, scale 1 mmol
  isolated yield: 38%
Scale 1 mmol
  isolated mass: 601.2 mg

## Sar-Arg-Val-Tyr-Val-His-Pro-(D-Phe(2-Cl))—OH
Based on 75% peptide content, scale 5 mmol
  isolated yield: 45%
Scale 5 mmol
  crude mass: 5.01 g
  isolated mass: 3039 mg

## Glac-Arg-Val-Tyr-Chg-His-Pro-(D-Phe(2-Cl))—OH
Based on 83.5% peptide content, scale 1 mmol
  isolated yield: 32%
Scale 1 mmol
  isolated mass: 384 mg

## Sar-Arg-Val-Tyr-Val-His-Pro-(D-1Nal)-OH
Based on 74.3% peptide content
  isolated yield: 29%

## Glac-Arg-Val-Tyr-Val-His-Pro-(D-Phe(2-Cl))—OH
Based on 80% peptide content, scale 3 mmol
  isolated yield: 46%
Scale 3 mmol
  isolated mass: 2013.5 mg

## Glac-Arg-Val-Tyr-Cpg-His-Pro-(D-Phe(2-Cl))—OH
Based on 78.7% peptide content, scale 0.25 mmol
  isolated yield: 17%
Scale 0.25 mmol
  isolated mass: 66.6 mg
